# In PubChem BioAssay AID493014 (National Center for Advancing Translational Sciences (NCATS), 2011):
# Some of the results follow. These are further read-outs of the screen, such as a control signal, another cell line or another target. No call is given for them. The list favours compounds with an active or inconclusive main result. Words in brackets tell the shape of the fitted curve; partial curves, single points and poor fits give uncertain potencies.
# Test: qHTS Assay to Find Inhibitors of Chronic Active B-Cell Receptor Signaling
# Details: ABC-DLBCL IkBa-CBG/CBR reporter, luminescence ratio (green luciferase fused to IkBa over red control in TMD8 lymphoma cells), 4 h
# In short: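 TMD8 human ABC-DLBCL cells with doxycycline-inducible IκBα–green luciferase fusion and unfused red luciferase, in 0.5% FBS medium; compounds up to 46 uM, 4 h at 37C. Green/red luminescence ratio, filter-overlap corrected, fitted to concentration-response curves.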
# [1] = measured here: CBR red luminescence, cell number
# [2] = measured here: IkBa-CBG green luminescence
SMILES,AC50 [1],AC50 [2]
Cc1ccc(C(=O)CSc2nnc(-c3ccncc3)n2C)cc1,"35.5 µM [falling, partial curve, poor fit]",–
COC(=O)Cc1[nH]n(-c2nc3ccccc3s2)c(=O)c1C(C)=Nc1ccc(Cl)cc1,"7.08 µM [falling, partial curve, poor fit]",–
O=C(c1ccc2c(c1)N(Cc1cccc(Cl)c1)C(=O)c1ccccc1S2(=O)=O)N1CCCCCC1,"35.5 µM [falling, single point]",–
O=C(NCCc1ccccc1)/C(=C\c1ccccc1)NC(=O)c1ccco1,"17.8 µM [rising, partial curve, poor fit]",–
O=C(O)c1ccc(-c2noc(-c3cccc(Cl)c3)n2)cc1,"0.0411 µM [falling, full curve]",–
CC(=O)N=c1sc2nc3ccccc3nc2n1N(C(C)=O)C(C)=O,"18.4 µM [falling, partial curve, poor fit]",–
C=C1CCN([C@H](C(=O)OCc2cccc(C)c2)C(C)C)S(=O)(=O)c2ccccc21,"35.5 µM [falling, partial curve, poor fit]",–
CC(=O)N(CCP(=O)(c1ccccc1)c1ccccc1)Cc1ccco1,"3.98 µM [rising, partial curve, poor fit]",–
CCCC1=Nc2cc(C(=O)NCCCOC(C)C)ccc2Sc2ccccc21,"14.6 µM [rising, partial curve, poor fit]","16.4 µM [falling, partial curve]"
O=c1[nH]cc(S(=O)(=O)Nc2ccc3c(c2)OCO3)c(=O)[nH]1,"32.6 µM [falling, partial curve, poor fit]",–
Cc1nc2c(cc1C#N)C(=O)c1ccccc1-2,"9.2 µM [falling, partial curve, poor fit]",–
CC(C)=NNc1nc(-c2ccccc2)cs1,"7.31 µM [falling, partial curve]",–
CC(C)OC(=O)CCCCCN1C(=O)CSC1=S,"20.6 µM [falling, single point]",–
O=C(O)c1ccc(-c2nc(-c3ccccc3)cs2)cc1,"5.62 µM [falling, partial curve, poor fit]",–
N#CCC(=O)Nc1ccc(C(=O)NNC(=S)NC2CCCCC2)cc1,"6.51 µM [rising, single point]",–
CCOC(=O)c1c(NC(=O)CSC(=S)N(C)C)sc(C)c1C,"20.6 µM [falling, single point]",–
CCOC(=O)c1cc(CC)sc1NC(=O)CC1SC(N)=NC1=O (stereo not drawn),"2 µM [falling, partial curve, poor fit]",–
CCN(CC)S(=O)(=O)c1cc(NC(=O)C(=O)c2c(-c3ccccc3)cc3ccccn23)ccc1C,"6.51 µM [rising, single point]",–
CNC(=O)/C(C#N)=C/c1ccc(-c2ccc(Cl)cc2)o1,"0.708 µM [rising, full curve, poor fit]",–
CC1CCCCC1NC(=O)/C(C#N)=C/c1ccc2c(c1)OCCO2 (stereo not drawn),"23.1 µM [falling, partial curve, poor fit]",–
Cc1ccc(Nc2nc(/N=C/N(C)C)n[nH]2)cc1C,"35.5 µM [falling, single point]",–

SMILES,AC50 [1],AC50 [2]
Cc1c(C)n(C(=O)CSc2ncn[nH]2)c2ccccc12,"7.31 µM [rising, partial curve, poor fit]",–
O=C(Nc1ccc(Cl)cc1Cl)c1ccc2c(c1)OCCO2,"16.4 µM [falling, single point]",–
Cc1cccc(NC(=S)NNC(=O)c2nn(C)cc2Cl)c1,"35.5 µM [falling, single point]",–
Cc1cc(=O)n2[nH]c(-c3ccccc3Cl)cc2n1,"20 µM [rising, single point]",–
CCOC(=O)Nc1ccc2c(c1)N(C(=O)CCN1CCOCC1)c1ccccc1S2=O (stereo not drawn),"7.08 µM [falling, full curve]",–
O=C(/C=C/c1ccccc1)Nc1ncn[nH]1,"7.08 µM [falling, partial curve]",–
Cc1nc2ccc(NC(=O)COc3cccc(F)c3)cc2s1,"3.16 µM [rising, partial curve, poor fit]",–
CC(=O)Nc1ccc(SCC(=O)O)cc1,"39.8 µM [rising, partial curve, poor fit]",–
CCOC(=O)Cc1c(C)nc2c(-c3ccc(Cl)cc3)c[nH]n2c1=O,"6.51 µM [rising, single point]",–
COCCNC(=O)c1c(N)n(/N=C/c2ccc(F)cc2)c2nc3ccccc3nc12,"0.708 µM [falling, full curve, poor fit]",–
CCCOc1ccc(/C=N/Nc2ccc(C(=O)O)cc2)c(OCCC)c1,"0.251 µM [falling, full curve]",–
O=C(/C=C/c1cccc([N+](=O)[O-])c1)n1cnc2ccccc21,"2.24 µM [falling, full curve, poor fit]",–
CSc1nc2ccc(S(=O)(=O)Nc3c(C)n(C)n(-c4ccccc4)c3=O)cc2s1,"2.59 µM [rising, full curve, poor fit]",–
O=C(Nc1nc(-c2ccc(S(=O)(=O)N3CCCC3)cc2)cs1)C1COc2ccccc2O1 (stereo not drawn),"0.291 µM [rising, full curve]",–
CCc1ccc2c(c1)c1nnc(NN)nc1n2C,"5.62 µM [rising, single point]",–
COc1ccc2oc(=O)c(C(=O)OCc3ccccc3)cc2c1,"6.31 µM [rising, single point]",–
Cc1nc(SCC(=O)NCC2CCCO2)nc(C)c1C (stereo not drawn),"23.1 µM [rising, single point]",–
O=C(c1cc2cc(C(F)(F)F)ccc2s1)N1CCOCC1,"1.12 µM [rising, partial curve]",–
CS(=O)(=O)c1cc([N+](=O)[O-])c(Sc2nc3ccccc3[nH]2)c([N+](=O)[O-])c1,"29.1 µM [falling, single point]","29.1 µM [rising, single point]"
COc1ccc(CCn2c(-c3ccncc3)n[nH]c2=S)cc1OC,"15.8 µM [rising, partial curve, poor fit]",–

# Taken from the listing, two compounds:
SMILES,AC50 [1],AC50 [2]
CS(=O)(=O)c1cc([N+](=O)[O-])c(Sc2nc3ccccc3[nH]2)c([N+](=O)[O-])c1,"29.1 µM [falling, single point]","29.1 µM [rising, single point]"
COc1ccc(CCn2c(-c3ccncc3)n[nH]c2=S)cc1OC,"15.8 µM [rising, partial curve, poor fit]",–
